From publication PMC7948500, “Comparative interactomes of HSF1 in stress and disease reveal a role for CTCF in HSF1-mediated gene regulation” (The Journal of Biological Chemistry, 2020)
Results are given in words; binding and its absence hold for the method and conditions named. In cells and extracts the contact can be indirect. Sequences can lack the tags named with a protein.

Molecular target: HSF1 ΔN1
Assay: co-IP; FLAG pull-down on anti-FLAG M2 magnetic beads from stable HSF1-knockdown 293T cells transfected with HA-CTCF and FLAG-HSF1 wildtype or truncations; immunoblot with anti-HA

- binding: no binding
B1: hemagglutinin-tagged CTCF (protein, UniProt P49711 1-727)
chain: MEGDAVEAIVEESETFIKGKERKTYQRRREGGQEEDACHLPQNQTDGGEVVQDVNSSVQMVMMEQLDPTLLQMKTEVMEGTVAPEAEAAVDDTQIITLQVVNMEEQPINIGELQLVQVPVPVTVPVATTSVEELQGAYENEVSKEGLAESEPMICHTLPLPEGFQVVKVGANGEVETLEQGELPPQEDPSWQKDPDYQPPAKKTKKTKKSKLRYTEEGKDVDVSVYDFEEEQQEGLLSEVNAEKVVGNMKPPKPTKIKKKGVKKTFQCELCSYTCPRRSNLDRHMKSHTDERPHKCHLCGRAFRTVTLLRNHLNTHTGTRPHKCPDCDMAFVTSGELVRHRRYKHTHEKPFKCSMCDYASVEVSKLKRHIRSHTGERPFQCSLCSYASRDTYKLKRHMRTHSGEKPYECYICHARFTQSGTMKMHILQKHTENVAKFHCPHCDTVIARKSDLGVHLRKQHSYIEQGKKCRYCDAVFHERYALIQHQKSHKNEKRFKCDQCDYACRQERHMIMHKRTHTGEKPYACSHCDKTFRQKQLLDMHFKRYHDPNFVPAAFVCSKCGKTFTRRNTMARHADNCAGPDGVEGENGGETKKSKRGRKRKMRSKKEDSSDSENAEPDLDDNEDEEEPAVEIEPEPEPQPVTPAPPPAKKRRGRPPGRTNQPKQNQPTAIIQVEDQNTGAIENIIVEVKKEPDAEPAEGEEEEAQPAATDAPNGDLTPEMILSMMDR
